According to paper PMC7453242:
Results are given in words; binding and its absence hold for the method and conditions named. In cells and extracts the contact can be indirect. Some binding calls cover weakened binding; strength is not graded here.

Amino acid sequences for entries named in this document (tags omitted).
UniProt Q9QZ81: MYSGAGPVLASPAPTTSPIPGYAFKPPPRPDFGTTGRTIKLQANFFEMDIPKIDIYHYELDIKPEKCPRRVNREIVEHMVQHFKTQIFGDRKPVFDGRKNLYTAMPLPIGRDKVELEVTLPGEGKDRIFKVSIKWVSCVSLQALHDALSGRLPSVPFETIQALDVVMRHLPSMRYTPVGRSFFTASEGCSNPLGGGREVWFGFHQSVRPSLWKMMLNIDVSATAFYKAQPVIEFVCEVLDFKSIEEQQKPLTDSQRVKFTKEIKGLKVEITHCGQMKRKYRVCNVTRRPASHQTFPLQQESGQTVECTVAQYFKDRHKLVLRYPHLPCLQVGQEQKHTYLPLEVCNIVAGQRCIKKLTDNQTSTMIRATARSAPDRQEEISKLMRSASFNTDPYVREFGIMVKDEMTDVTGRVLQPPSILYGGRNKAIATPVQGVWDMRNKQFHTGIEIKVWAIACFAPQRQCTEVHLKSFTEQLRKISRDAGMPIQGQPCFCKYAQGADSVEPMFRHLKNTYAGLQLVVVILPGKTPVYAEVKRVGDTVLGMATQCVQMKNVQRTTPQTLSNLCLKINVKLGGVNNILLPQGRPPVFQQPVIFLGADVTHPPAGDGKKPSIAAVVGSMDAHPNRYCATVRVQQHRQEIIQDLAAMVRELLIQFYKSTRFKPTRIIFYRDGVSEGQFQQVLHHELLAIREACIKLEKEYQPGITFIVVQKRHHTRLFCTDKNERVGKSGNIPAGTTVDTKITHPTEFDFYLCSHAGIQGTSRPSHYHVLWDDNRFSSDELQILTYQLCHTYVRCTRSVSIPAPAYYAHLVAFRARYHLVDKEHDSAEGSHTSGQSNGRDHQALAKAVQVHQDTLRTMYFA

Target: Argonaute-2 (Ago2) in TEC lysate (rat (endogenous in NRK52E)) (UniProt Q9QZ81)
Assay: co-IP; lysates of TECs with different treatments incubated with anti-Ago2 mouse monoclonal antibody at 4°C overnight, protein A+G agarose for 3 hours at 4°C; beads probed with Ago2 and Nrp-1 antibodies by immunoblotting

- binding: binds
Substance: Neuropilin-1 (Nrp-1), TEC-derived (from UniProt Q9QWJ9 22-922) (receptor)
